Experimental data: PubChem BioAssay AID1224830 (NIAID, 2016)

Assay: 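Regulators of TLR4 signalling towards TNF-alpha in macrophage-like cells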 (primary screen)
Cells: human THP-1 monocytic leukaemia cells, TNF dual-luciferase reporter clone, PMA-differentiated to macrophage-like cells
Knock-down reagent: siRNA pool against human genes, 50 nM
Time to read-out: LPS for 4 h, given about 3 days after siRNA transfection
Treatment: bacterial LPS (TLR4 ligand), 10 ng/ml
Detection: 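TNF firefly reporter luminescence divided by renilla, normalised to the plate median, then turned into a robust z-score for each replicate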
Scale: TNF reporter robust z-score: higher = stronger TNF reporter response to LPS
Rule for the call: 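Each well counts as active if its z-score is over 2.8 or under -1.5; controls are left without a call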
Shown is one part, drawn at random, of about 18,000 reagents tested. Of all reagents, about 2,900 (16%) are marked active. 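Calls are made per well; low scores hint the gene aids the LPS response, high scores that it dampens it.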 Repeated entries: four replicate wells of each siRNA pool. No sequences are given here.

Gene,TNF reporter robust z-score,activity call
OR51I2,0.14,inactive
OR51I2,-0.2,inactive
OR51I2,-0.22,inactive
OR51I2,0.32,inactive
PON1,-0.01,inactive
PON1,1.97,inactive
PON1,0.65,inactive
PON1,0.31,inactive
CDC50B,-0.84,inactive
CDC50B,-0.27,inactive
CDC50B,0.08,inactive
CDC50B,0.44,inactive
SPOPL,0.2,inactive
SPOPL,-0.51,inactive
SPOPL,-0.16,inactive
SPOPL,0.56,inactive
ANG,1.59,inactive
ANG,1.65,inactive
ANG,2.42,inactive
ANG,2.95,active
FEN1,0.37,inactive
FEN1,-0.41,inactive
FEN1,0.56,inactive
FEN1,0.26,inactive
RALA,-0.81,inactive
RALA,-0.64,inactive
RALA,0.01,inactive
RALA,0.14,inactive
TPBG,0.38,inactive
TPBG,0,inactive
TPBG,-0.86,inactive
TPBG,0.04,inactive
KLF3,0.53,inactive
KLF3,0.1,inactive
KLF3,0.04,inactive
KLF3,1.1,inactive
ZMYND12,0.05,inactive
ZMYND12,0.39,inactive
ZMYND12,-0.05,inactive
ZMYND12,0.25,inactive

The list goes on.
Gene,TNF reporter robust z-score,activity call
HLA-DOA,-1.08,inactive
HLA-DOA,-0.56,inactive
HLA-DOA,-0.44,inactive
HLA-DOA,-0.48,inactive
FBXO9,0.51,inactive
FBXO9,-1.7,active
FBXO9,0.25,inactive
FBXO9,1.6,inactive
SLC6A16,-0.01,inactive
SLC6A16,-1.48,inactive
SLC6A16,-1.73,active
SLC6A16,-1.37,inactive
ERLIN2,1.46,inactive
ERLIN2,0.37,inactive
ERLIN2,0.38,inactive
ERLIN2,-0.13,inactive
TOMM22,1.47,inactive
TOMM22,-0.18,inactive
TOMM22,2.11,inactive
TOMM22,0.9,inactive
VSTM1,-1.19,inactive
VSTM1,-0.9,inactive
VSTM1,-1.5,inactive
ZFAND5,-1.28,inactive
ZFAND5,-0.89,inactive
ZFAND5,-0.73,inactive
ZFAND5,-0.82,inactive
CPA1,-1.07,inactive
CPA1,1.72,inactive
CPA1,-0.95,inactive
CPA1,0.93,inactive
CMTM4,-0.13,inactive
CMTM4,0.01,inactive
CMTM4,-0.24,inactive
CMTM4,-1.07,inactive
KDM4A,-1,inactive
KDM4A,-0.64,inactive
KDM4A,-0.83,inactive
KDM4A,-0.97,inactive
HSD17B2,-1.29,inactive
HSD17B2,-0.99,inactive
HSD17B2,-0.91,inactive
HSD17B2,-1.02,inactive
AWAT1,0.2,inactive
AWAT1,0.42,inactive
AWAT1,0.66,inactive
AWAT1,0.08,inactive
IFNA14,-0.87,inactive
IFNA14,-0.63,inactive
IFNA14,-1.25,inactive
IFNA14,-0.66,inactive
TUBB6,-0.92,inactive
TUBB6,0.3,inactive
TUBB6,-1.21,inactive
TUBB6,-0.97,inactive
SHC2,-0.49,inactive
SHC2,-0.71,inactive
SHC2,-0.84,inactive
SHC2,-1.26,inactive
PIAS2,0.52,inactive
PIAS2,0.43,inactive
PIAS2,0.03,inactive
PIAS2,-0.27,inactive
MMRN1,0.5,inactive
MMRN1,1.37,inactive
MMRN1,-0.33,inactive
MMRN1,0.65,inactive
CACUL1,1.13,inactive
CACUL1,1.08,inactive
CACUL1,1.52,inactive
CACUL1,-0.76,inactive
